Assay results as given in PubChem BioAssay AID1347076 (National Center for Advancing Translational Sciences (NCATS), 2019).
About 13,000 (3.2%) of roughly 400,000 compounds were called active. Inconclusive results, whose numbers are uncertain, are shown with a selection of clear calls. Calls come from the whole dose curve; as a rule, active = well fitted cell-killing curve with a large enough effect; inconclusive = small, poorly fitted or top-dose-only effect, or effect the other way; inactive = flat fitted curve, though single readings scatter. Where the call is inconclusive, the potency comes from a doubtful curve fit.

Assay: qHTS assay for MDR1-selective chemotherapeutics: Primary screen using the drug-selected MDR subline cells KB-V1; note: nearly all actives have a fitted effect of over 60% in size
Conditions: KB-V1 MDR cells viability, CellTiter-Glo, 72 h; activity change, negative = cytotoxicity: at 46.1 µM (top of the series)
Outline: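 KB-V1, DMEM (no phenol red) + 10% FBS; cpd pin-transferred, titration series; 72 h, 37 degrees C; CellTiter-Glo, luminescence. Data normalized, curve-fit.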
% is set by controls: 0 for no effect and ±100 for the full control effect; potency is the fitted concentration of half-maximal effect.

| Structure (SMILES) | Potency | activity change, negative = cytotoxicity |
| --- | --- | --- |
| COc1ccc(-c2cc(C(=O)Nc3ccc(C(N)=O)cc3)c3ccccc3n2)cc1 | inconclusive: 32.6 µM [cytotoxic, partial curve, poor fit] |  |
| CC(=O)N1CCN(Cc2nc3cc(NC(=O)NC4CCCCC4)ccc3n2C)CC1 | inconclusive: 9.2 µM [rising, partial curve, poor fit] |  |
| COc1ccc(C2CC(=O)c3c(C)nc(N4CCN(C=O)CC4)nc3C2)c(OC)c1 (centres undefined) | inconclusive: 13 µM [cytotoxic, partial curve] |  |
| COCCNC(=O)c1ccc(NC(C)=O)cc1 | inconclusive: 29.1 µM [rising, single point] |  |
| CCCCNC(=O)c1cc2c(=O)n3cccc(C)c3nc2n(CCN2CCOCC2)c1=N | active: 10.3 µM |  |
| C=C1C(=O)c2sccc2C(c2ccc(OC)c(OC)c2)C1COC(C)=O (centres undefined) | inconclusive: 18.4 µM [cytotoxic, single point] |  |
| CCOC(=O)c1ccc(N=c2ssnc2Cl)cc1 |  | inactive: 0.265% |
| Cc1ccc(C(=O)C2=C(O)C(=O)N(Cc3cccnc3)C2c2ccc(N(C)C)cc2)o1 (centres undefined) |  | inactive: 16.1% |
| COc1cc2cnc(-c3ccccc3)c(-c3cccc(C(F)(F)F)c3)c2cc1OC | inconclusive: 29.1 µM [cytotoxic, single point] |  |
| CCn1c(=O)sc2cc(NC(=O)c3cccc(OC)c3)ccc21 |  | inactive: -2.44% |
| CCOC(=O)c1cccc(NC(=O)c2cc3sccc3n2C)c1 | inconclusive: 18.4 µM [cytotoxic, partial curve, poor fit] |  |
| OC1(C2(O)CC(c3ccccc3)ON2)CCCCC1 (centres undefined) | inconclusive: 18.4 µM [cytotoxic, single point] |  |
| COc1cccc(C=C2SC(=S)NC2=O)c1 | inconclusive: 16.4 µM [cytotoxic, partial curve] |  |
| COc1ccc(S(=O)(=O)Cc2ccc(C(=O)NCCCN(C)c3ccccc3)o2)cc1 | active: 6.51 µM |  |
| N#CCSc1nnc(COc2cccc3ccccc23)n1-c1cccc(Cl)c1 | inconclusive: 18.4 µM [cytotoxic, single point] |  |
| CC(C)c1nn2c(=O)cc(COC(=O)CNC(=O)c3ccccc3Cl)nc2s1 | inconclusive: 20.6 µM [rising, single point] |  |
| COc1ccc(N2CCN(C(=O)Cc3nn(C)c(=O)c4ccccc34)CC2)cc1 | active: 14.6 µM |  |
| Cc1sc2nc(SCC(=O)c3cc(C)n(CC4CCCO4)c3C)n(C(C)C)c(=O)c2c1C (centres undefined) | inconclusive: 20.6 µM [cytotoxic, single point] |  |
| CN(CCOc1ccc(Cl)cc1)C(=O)c1cccc(S(=O)(=O)N2CCN(c3ccc(F)cc3)CC2)c1 | inconclusive: 10.3 µM [cytotoxic, partial curve] |  |
| CCN1CCN(c2nnc(-n3cccc3C(=O)Nc3cccc(OC)c3)s2)CC1 |  | inactive: -7.29% |
| O=C(OCC1CCC=CO1)C1CCC=CO1 (centres undefined) | inconclusive: 23.1 µM [rising, single point] |  |
| Nc1nonc1-n1nnc(C(=O)N/N=C/c2ccc(OCc3ccccc3)cc2)c1CNc1ccccc1 |  | inactive: 5.28% |
| COc1ccc(/C=C2\SC(=S)N(CCCC(=O)N3CCOCC3)C2=O)cc1OC | inconclusive: 16.4 µM [cytotoxic, partial curve] |  |

| Structure (SMILES) | Potency | activity change, negative = cytotoxicity |
| --- | --- | --- |
| O=C(/C=C/c1cccc([N+](=O)[O-])c1)NC(=S)Nc1cccc(NC(=O)c2ccccc2Cl)c1 | inconclusive: 18.4 µM [cytotoxic, partial curve] |  |
| CCN(CC(=O)Nc1ccc2c(c1)OCCO2)C(=O)C(C)Oc1ccc(Cl)cc1 (centres undefined) |  | inactive: -8.65% |
| O=C(O)CSc1nnc(-c2cc3ccccc3o2)n1-c1ccccc1 | inconclusive: 20.6 µM [rising, partial curve] |  |
| CCOC(=O)Cc1csc(NC(=O)COc2ccc(C)c(C)c2)n1 | inconclusive: 29.1 µM [rising, single point] |  |
| Cc1[nH]n(-c2ccccc2)c(=O)c1/C=N/N1C(=O)c2ccc3c4c(ccc(c24)C1=O)CC3 |  | inconclusive: -52.7% |
| CCCN1CCC(N2CCN(c3cccc(C(F)(F)F)c3)CC2)CC1 |  | inactive: 1.91% |
| COC(=O)c1cccc(Oc2cccc(C(F)(F)F)c2)n1 | inconclusive: 20.6 µM [rising, partial curve, poor fit] |  |
| CCC(C)NC(=O)CCNS(=O)(=O)c1ccc(Br)cc1 (centres undefined) | inconclusive: 16.4 µM [cytotoxic, partial curve, poor fit] |  |
| COCCn1c(SCC(=O)Nc2cc(C)nn2-c2ccccc2)nnc1-c1ccncc1 | inconclusive: 1.03 µM [rising, partial curve, poor fit] |  |
| O=C(NCc1ccccc1)Nc1cccn(Cc2ccc(Cl)cc2)c1=O |  | inconclusive: -13% |
| O=C1CCC([N+](=O)[O-])C(c2ccc(Cl)c([N+](=O)[O-])c2)N1 (centres undefined) |  | inactive: 14.4% |
| Cc1ccc(NC(=O)c2cc(S(=O)(=O)N3CCOCC3)c(Br)s2)cc1 | active: 23.1 µM |  |
| COc1ccc(-c2cc(N)n(S(=O)(=O)c3c(F)c(F)c(F)c(F)c3F)n2)cc1OC | active: 9.2 µM |  |
| COc1cc(C2NC(=O)NC(C)=C2[N+](=O)[O-])cc(OC)c1OC (centres undefined) |  | inactive: 1.64% |
| O=C(O)C1CSC(c2coc3ccccc3c2=O)N1 (centres undefined) |  | inactive: -11.8% |
| COc1ccc(S(=O)(=O)Nc2ccc(OCC(=O)O)cc2)c2ccccc12 | inconclusive: 29.1 µM [rising, single point] |  |
| CCCCN(C(=O)c1ccc2c(c1)OCCO2)c1c(N)n(CC(C)C)c(=O)[nH]c1=O |  | inactive: 25.4% |
| CC(C)Nc1ncnc2c1nnn2Cc1ccccc1 |  | inactive: -10.4% |
| COCCOC(=O)c1c(C)oc2ccc(OC(=O)c3c(OC)cccc3OC)cc12 | inconclusive: 29.1 µM [cytotoxic, single point] |  |
| COc1ccccc1Nc1nc(N)nc(CSC(=S)N2CCCCC2)n1 | inconclusive: 16.4 µM [cytotoxic, partial curve] |  |
| CN1CCN(C(=O)c2ccc(CS(=O)Cc3ccc(Cl)cc3)o2)CC1 (centres undefined) | inconclusive: 29.1 µM [rising, single point] |  |
| CSCc1nnc(NC(=O)c2ccc(S(=O)(=O)N3CCCCC3C)cc2)o1 (centres undefined) | inconclusive: 7.31 µM [cytotoxic, partial curve] |  |
| O=C(c1ccc(-c2ccc(Cl)cc2Cl)o1)N1CCOCC1 | inconclusive: 20.6 µM [cytotoxic, single point] |  |

| Structure (SMILES) | Potency | activity change, negative = cytotoxicity |
| --- | --- | --- |
| CCCC(=O)N1CCOCC1c1cc(C(=O)Nc2ccccc2)no1 (centres undefined) |  | inactive: 6.38% |
| CCCN(CC(=O)Nc1ccc(Cl)cc1Cl)C(=O)/C=C/c1cc(OC)ccc1OC | inconclusive: 23.1 µM [cytotoxic, partial curve, poor fit] |  |
| COc1cc(C)c(S(=O)(=O)NOCc2ccccc2)c(C)c1C | inconclusive: 14.6 µM [cytotoxic, partial curve] |  |
| O=c1ccc(N=Nc2ccccc2)ccc1O | inconclusive: 29.1 µM [cytotoxic, single point] |  |
| COCC(C)NC(=O)c1cc(-c2ccc(OC)c(OC)c2)on1 (centres undefined) | inconclusive: 18.4 µM [cytotoxic, single point] |  |
| Cc1ccc(C)c(NC(=O)CN(C)C(=O)[C@@H](NC(=O)c2ccc(C(C)(C)C)cc2)C(C)C)c1 | inconclusive: 7.31 µM [cytotoxic, partial curve] |  |
| Cc1ccc(S(=O)(=O)N2CCC(C(=O)NCCCOC(C)C)CC2)cc1 | inconclusive: 32.6 µM [cytotoxic, single point] |  |
| O=C(CC1C(=O)N(c2ccccc2)C(=O)N1Cc1ccc2c(c1)OCO2)Nc1ccccc1 (centres undefined) |  | inactive: 8.28% |
| O=C(Nc1ccc(CN2CCCCC2)cc1)Nc1ccc(Br)cc1Cl | inconclusive: 1.16 µM [cytotoxic, partial curve, poor fit] |  |
| CC(C)(O)CC[C@@H](O)[C@](C)(O)[C@H]1CC[C@@]2(O)C3=CC(=O)[C@@H]4C[C@@H](O)[C@@H](O)C[C@]4(C)C3CC[C@]12C (some centres undefined) | inconclusive: 29.1 µM [rising, single point] |  |
| Cc1c(C)n(Cc2ccc(F)cc2)c2ccc(C(=O)Nc3ccc(Cl)cc3)cc12 |  | inactive: -21.7% |
| O=C(Nc1cnn(Cc2ccc(Cl)cc2)c1)C1CCCC1 | active: 20.6 µM |  |
| CCCn1c(=O)c2c(C(=O)OCC)cc(-c3ccco3)nc2n(CCC)c1=O | active: 18.4 µM |  |
| COCCN1CCN(C(=O)c2cc(COc3ccc(Cl)cc3OC)on2)CC1 | inconclusive: 20.6 µM [cytotoxic, single point] |  |
| CC(C)=CCNc1ncnc2c1c(C#N)cn2C1OC(CO)C(O)C1O (centres undefined) | inconclusive: 23.1 µM [cytotoxic, single point] |  |
| CCn1nc(NC(=O)c2ccccn2)c2cc3cccc(C)c3nc21 |  | inactive: -10.3% |
| O=c1[nH]c2cc3c(cc2cc1CN(CCN1CCOCC1)C(=S)NCC1CCCO1)OCO3 (centres undefined) | inconclusive: 29.1 µM [rising, single point] |  |
| COc1cc(OC)cc(-c2nc3ccccc3s2)c1 | inconclusive: 18.4 µM [cytotoxic, single point] |  |
| CCOC(=O)c1cnc2ccc(C)cc2c1NCCc1ccc(OC)c(OC)c1 | inconclusive: 0.731 µM [cytotoxic, full curve, poor fit] |  |
| N#CCCN(C(=O)COC(=O)CCc1nc2ccccc2c(=O)[nH]1)c1ccccc1F | inconclusive: 25.9 µM [cytotoxic, single point] |  |
| COc1ccc(NC(=O)c2oc3ccccc3c2NC(=O)Cc2cccs2)cc1 | inconclusive: 1.16 µM [cytotoxic, full curve] |  |
| Cc1ccc(NC(=O)C(Cc2ccccc2)NC(=O)OCc2ccccc2)cc1C (centres undefined) | active: 5.8 µM |  |
| N#CCCSc1nc(N2CCOCC2)c2c(c1C#N)CCCC2 | inconclusive: 6.51 µM [cytotoxic, partial curve, poor fit] |  |
